In PMC11187117, “Structure of the endosomal CORVET tethering complex” (Nature Communications, 2024):
No constants are given. Whether binding was seen depends on the method and setting. Some binding calls cover weakened binding; strength is not graded here. Where a sequence is shown, tags or fusion partners need not be part of it.

The chains behind the UniProt entries cited, without tags or fusion partners. Where a name states a change or a piece, a line headed by the entry shows the natural chain unless it says otherwise. Residues count along the entry.
UniProt P12868, residues 336-1029: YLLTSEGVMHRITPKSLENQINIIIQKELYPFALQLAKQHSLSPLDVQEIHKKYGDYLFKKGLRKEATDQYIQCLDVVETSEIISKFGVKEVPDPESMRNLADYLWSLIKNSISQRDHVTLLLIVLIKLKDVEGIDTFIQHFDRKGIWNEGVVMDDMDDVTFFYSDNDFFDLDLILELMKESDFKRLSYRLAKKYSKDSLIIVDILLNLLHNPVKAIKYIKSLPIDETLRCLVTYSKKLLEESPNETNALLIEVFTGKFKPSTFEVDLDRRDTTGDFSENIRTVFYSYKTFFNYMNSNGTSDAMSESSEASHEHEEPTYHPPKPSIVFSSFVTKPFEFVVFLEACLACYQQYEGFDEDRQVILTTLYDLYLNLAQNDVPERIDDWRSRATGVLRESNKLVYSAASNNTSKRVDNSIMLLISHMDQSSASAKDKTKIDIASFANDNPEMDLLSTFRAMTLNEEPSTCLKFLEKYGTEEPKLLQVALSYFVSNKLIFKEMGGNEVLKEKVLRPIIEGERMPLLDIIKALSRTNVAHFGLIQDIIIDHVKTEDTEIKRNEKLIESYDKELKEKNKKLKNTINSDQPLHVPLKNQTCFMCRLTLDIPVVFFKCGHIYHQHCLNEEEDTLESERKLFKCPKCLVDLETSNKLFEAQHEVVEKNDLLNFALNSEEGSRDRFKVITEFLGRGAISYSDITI

T1: Vps8 with 3xFLAG tag (CORVET subunit) (yeast, UniProt P39702 1-1274)
T1 construct: UniProt P39702 printed for its AlphaFold model
T1 sequence: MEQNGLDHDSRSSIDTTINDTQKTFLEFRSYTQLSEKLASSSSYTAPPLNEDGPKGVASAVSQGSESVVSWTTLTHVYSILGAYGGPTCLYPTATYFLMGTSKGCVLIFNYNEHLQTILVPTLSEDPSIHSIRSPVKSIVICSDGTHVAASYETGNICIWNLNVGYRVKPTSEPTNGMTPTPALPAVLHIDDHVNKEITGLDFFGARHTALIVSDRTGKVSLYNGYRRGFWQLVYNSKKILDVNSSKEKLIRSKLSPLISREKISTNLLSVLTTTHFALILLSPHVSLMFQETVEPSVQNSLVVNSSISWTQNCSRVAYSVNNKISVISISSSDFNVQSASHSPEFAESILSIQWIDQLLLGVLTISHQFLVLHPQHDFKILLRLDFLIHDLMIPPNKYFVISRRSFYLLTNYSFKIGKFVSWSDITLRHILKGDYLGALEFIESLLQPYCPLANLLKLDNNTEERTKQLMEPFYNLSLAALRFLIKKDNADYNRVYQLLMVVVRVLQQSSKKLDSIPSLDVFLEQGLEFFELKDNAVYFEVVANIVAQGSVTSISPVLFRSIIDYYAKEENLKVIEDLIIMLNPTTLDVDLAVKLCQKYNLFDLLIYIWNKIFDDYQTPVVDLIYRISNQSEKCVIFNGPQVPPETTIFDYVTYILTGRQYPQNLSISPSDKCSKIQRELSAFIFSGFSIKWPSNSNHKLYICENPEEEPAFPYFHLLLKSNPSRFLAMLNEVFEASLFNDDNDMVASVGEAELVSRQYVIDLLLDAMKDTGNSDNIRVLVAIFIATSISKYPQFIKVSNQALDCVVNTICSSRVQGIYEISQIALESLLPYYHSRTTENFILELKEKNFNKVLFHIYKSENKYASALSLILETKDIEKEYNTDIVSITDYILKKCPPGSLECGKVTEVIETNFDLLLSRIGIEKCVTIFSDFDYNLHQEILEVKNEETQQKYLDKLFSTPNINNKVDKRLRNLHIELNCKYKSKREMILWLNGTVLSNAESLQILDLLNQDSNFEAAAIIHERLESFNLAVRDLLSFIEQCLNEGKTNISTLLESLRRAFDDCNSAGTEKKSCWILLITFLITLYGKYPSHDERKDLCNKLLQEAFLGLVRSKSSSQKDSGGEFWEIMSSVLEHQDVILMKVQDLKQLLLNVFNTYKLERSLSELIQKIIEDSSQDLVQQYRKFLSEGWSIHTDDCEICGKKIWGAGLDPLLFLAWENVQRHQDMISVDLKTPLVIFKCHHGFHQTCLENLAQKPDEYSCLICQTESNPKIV

T2: Vps33 (CORVET and HOPS subunit, SM protein of the SNARE-binding module) (yeast), P20795
T2 chain: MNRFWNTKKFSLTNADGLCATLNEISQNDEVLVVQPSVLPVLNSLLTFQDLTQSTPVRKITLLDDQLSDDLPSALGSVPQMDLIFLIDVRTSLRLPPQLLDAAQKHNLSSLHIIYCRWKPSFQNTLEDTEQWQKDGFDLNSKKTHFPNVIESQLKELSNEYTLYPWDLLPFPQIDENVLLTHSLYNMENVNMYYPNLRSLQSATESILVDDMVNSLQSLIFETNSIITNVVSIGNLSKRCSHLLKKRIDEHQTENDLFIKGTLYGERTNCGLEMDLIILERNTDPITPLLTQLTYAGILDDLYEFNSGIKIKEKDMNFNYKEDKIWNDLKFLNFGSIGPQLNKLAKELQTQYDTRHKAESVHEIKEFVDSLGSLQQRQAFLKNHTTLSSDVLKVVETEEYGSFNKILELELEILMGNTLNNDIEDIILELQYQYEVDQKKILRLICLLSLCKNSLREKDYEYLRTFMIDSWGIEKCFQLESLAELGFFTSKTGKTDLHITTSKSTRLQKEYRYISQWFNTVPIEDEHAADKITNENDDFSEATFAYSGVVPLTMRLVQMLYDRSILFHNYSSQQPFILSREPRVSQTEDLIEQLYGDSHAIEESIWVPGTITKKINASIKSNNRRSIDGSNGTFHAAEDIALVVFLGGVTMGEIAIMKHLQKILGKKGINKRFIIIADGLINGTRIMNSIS

B1: Vps8 with 3xFLAG tag (CORVET subunit), P39702 1-1274 (protein)
chain: T1 sequence

Tests used:
[1] = target: T1, Vps8 with 3xFLAG tag (CORVET subunit); assay: FLAG affinity purification followed by SEC; mutant CORVET complexes overproduced in yeast, anti-FLAG M2 affinity gel from lysate, FLAG-peptide elution, Superose 6 Increase; 300 mM NaCl, 20 mM HEPES/NaOH pH 7.4, 1.5 mM MgCl2, 10% glycerol
[2] = target: T2, Vps33 (CORVET and HOPS subunit, SM …); assay: cryo-EM structure; single-particle cryo-EM of the hexameric CORVET co-expressed in yeast and purified by 3xFLAG on Vps8 and SEC; about 0.8 mg/ml; consensus map 4.6 Å, local refinements to 3.8 Å; both purified; settings: remark: other sources report otherwise

Molecule	binding [1]	binding [2]
Vps11ΔN (Vps11 lacking the β-propeller, residues 1-335) (from UniProt P12868 336-1029) (domain or fragment)	binds	
B1		binds
